Results as given in article PMC2848588.
Results are given in words; binding and its absence hold for the method and conditions named. Sequences can lack the tags named with a protein.

Biological target: YqeH (Bacillus subtilis), full length, His-tagged (Bacillus subtilis) (UniProt P54453)
Experiment: SEC; analytical gel filtration, Superdex 200 5/150 GL; 7 µM YqeH in 20 mM Tris pH 8, 10 mM MgCl2, 150 mM KCl; nucleotide-free, with 1 mM GDP, with 1 mM GTP, or with 1 mM GDP + 1 mM AlCl3 + 10 mM NaF (GDP·AlFx); incubated at room temperature for 10 min; both purified

binding: no binding (tested: 7 µM)
B1: YqeH (Bacillus subtilis), full length, His-tagged (enzyme, UniProt P54453 1-366)
chain: MEKVVCIGCGVTIQTEDKTGLGYAPPASLTKENVICQRCFRLKNYNEIQDVSLTDDDFLNILHGIGETDSLVVKIVDIFDFNGSWINGLQRLVGGNPILLVGNKADILPKSLKRERLIQWMKREAKELGLKPVDVFLVSAGRGQGIREVIDAIEHYRNGKDVYVVGCTNVGKSTFINRIIKEVSGEEDIITTSQFPGTTLDAIEIPLDDGSSLYDTPGIINNHQMAHYVNKKDLKILSPKKELKPRTFQLNDQQTLYFGGLARFDYVSGERSPFICYMPNELMIHRTKLENADALYEKHAGELLTPPGKDEMDEFPELVAHTFTIKDKKTDIVFSGLGWVTVHDADKKVTAYAPKGVHVFVRRSLI
